Assay results reported in publication PMC10913264.
No constants are given. Whether binding was seen depends on the method and setting. Binding seen in cells or lysates may run through a third protein. Some binding calls cover weakened binding; strength is not graded here.

Sequences of proteins named here, by UniProt entry; tags and fusion partners are left off. Residues count along the entry.
UniProt P08581, residues 25-1390: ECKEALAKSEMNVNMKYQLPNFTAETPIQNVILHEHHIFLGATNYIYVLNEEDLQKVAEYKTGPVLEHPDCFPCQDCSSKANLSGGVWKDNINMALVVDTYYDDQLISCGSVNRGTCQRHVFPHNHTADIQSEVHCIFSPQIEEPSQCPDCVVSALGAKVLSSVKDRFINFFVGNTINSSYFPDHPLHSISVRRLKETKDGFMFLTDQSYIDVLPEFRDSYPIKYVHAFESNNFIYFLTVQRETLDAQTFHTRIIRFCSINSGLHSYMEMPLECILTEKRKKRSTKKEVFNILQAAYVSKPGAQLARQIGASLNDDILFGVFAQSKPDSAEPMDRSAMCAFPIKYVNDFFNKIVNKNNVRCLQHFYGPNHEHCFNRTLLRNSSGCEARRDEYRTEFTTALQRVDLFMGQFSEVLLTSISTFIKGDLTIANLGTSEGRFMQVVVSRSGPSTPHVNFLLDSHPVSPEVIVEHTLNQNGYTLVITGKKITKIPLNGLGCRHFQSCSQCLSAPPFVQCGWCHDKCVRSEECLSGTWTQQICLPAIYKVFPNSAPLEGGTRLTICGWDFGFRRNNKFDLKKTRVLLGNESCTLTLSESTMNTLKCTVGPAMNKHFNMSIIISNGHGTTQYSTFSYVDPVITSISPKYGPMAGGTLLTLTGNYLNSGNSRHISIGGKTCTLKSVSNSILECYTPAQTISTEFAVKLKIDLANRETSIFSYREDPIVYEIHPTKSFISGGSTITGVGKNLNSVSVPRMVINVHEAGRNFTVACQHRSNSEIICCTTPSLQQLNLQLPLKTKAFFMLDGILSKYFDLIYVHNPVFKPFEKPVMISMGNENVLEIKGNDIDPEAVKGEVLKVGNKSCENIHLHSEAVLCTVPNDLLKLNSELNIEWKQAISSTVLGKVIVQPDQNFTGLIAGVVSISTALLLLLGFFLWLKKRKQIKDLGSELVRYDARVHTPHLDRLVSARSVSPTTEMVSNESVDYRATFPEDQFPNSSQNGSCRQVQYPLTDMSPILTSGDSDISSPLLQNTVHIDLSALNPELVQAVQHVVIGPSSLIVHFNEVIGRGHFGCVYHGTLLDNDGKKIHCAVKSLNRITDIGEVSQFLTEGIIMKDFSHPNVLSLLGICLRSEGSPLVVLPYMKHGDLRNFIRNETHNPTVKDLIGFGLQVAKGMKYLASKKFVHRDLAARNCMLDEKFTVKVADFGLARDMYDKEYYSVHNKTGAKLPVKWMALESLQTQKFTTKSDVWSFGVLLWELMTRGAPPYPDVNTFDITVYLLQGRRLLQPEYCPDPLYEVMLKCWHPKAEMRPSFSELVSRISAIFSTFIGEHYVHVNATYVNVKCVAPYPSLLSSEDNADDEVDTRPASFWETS
UniProt P42771: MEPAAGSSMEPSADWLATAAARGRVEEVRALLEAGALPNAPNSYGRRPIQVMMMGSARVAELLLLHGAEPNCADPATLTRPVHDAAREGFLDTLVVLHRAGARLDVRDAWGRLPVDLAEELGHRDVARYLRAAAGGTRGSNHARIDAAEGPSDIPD

B1: Mucin 20 (MUC20) (protein, UniProt Q8N307 26-709)
chain: GPSTRRADTAMTTDDTEVPAMTLAPGHAALETQTLSAETSSRASTPAGPIPEAETRGAKRISPARETRSFTKTSPNFMVLIATSVETSAASGSPEGAGMTTVQTITGSDPREAIFDTLCTDDSSEEAKTLTMDILTLAHTSTEAKGLSSESSASSDSPHPVITPSRASESSASSDGPHPVITPSRASESSASSDGPHPVITPSRASESSASSDGPHPVITPSRASESSASSDGPHPVITPSRASESSASSDGPHPVITPSRASESSASSDGPHPVITPSRASESSASSDGPHPVITPSRASESSASSDGPHPVITPSRASESSASSDGLHPVITPSRASESSASSDGPHPVITPSRASESSASSDGPHPVITPSWSPGSDVTLLAEALVTVTNIEVINCSITEIETTTSSIPGASDTDLIPTEGVKASSTSDPPALPDSTEAKPHITEVTASAETLSTAGTTESAAPDATVGTPLPTNSATEREVTAPGATTLSGALVTVSRNPLEETSALSVETPSYVKVSGAAPVSIEAGSAVGKTTSFAGSSASSYSPSEAALKNFTPSETPTMDIATKGPFPTSRDPLPSVPPTTTNSSRGTNSTLAKITTSAKTTMKPPTATPTTARTRPTTDVSAGENGGFLLLRLSVASPEDLTDPRVAERLMQQLHRELHAHAPHFQVSLLRVRRG
B2: MUC20 overexpressed from a lentiviral vector (MUC20 OE) (protein, UniProt Q8N307 26-709)
chain: B1 chain

Experiments:
[1] = biological target: His-tagged wild-type MET (WT-MET) (UniProt P08581); assay: co-IP; His antibody (66005-1-Ig) with protein A/G magnetic beads, lysate of WT-MET or MUT-MET-transfected PI-resistant KAS-6/1 and U266 cells, bound proteins by Western blot
[2] = biological target: MET proto-oncogene, receptor tyrosine kinase (MET) (human (endogenous in KAS-6/1 and U266)) (UniProt P08581); assay: co-IP; MET antibody (ab216330) with protein A/G magnetic beads overnight at 4 °C, non-denaturing lysate of PI-resistant KAS-6/1 and U266 cells, bound proteins by Western blot; rabbit IgG as negative control
[3] = biological target: MET proto-oncogene, receptor tyrosine kinase (MET) (human (endogenous in KAS-6/1 and U266)) (UniProt P08581); assay: co-IP; MET antibody, lysate of control or MUC20 OE-transfected PI-resistant KAS-6/1 and U266 cells, bound proteins by Western blot; rabbit IgG as negative control

Molecule | binding [1] | binding [2] | binding [3]
Cyclin-dependent kinase inhibitor 2 A (CDKN2A) (from UniProt P42771 1-156) | binds | binds | binds
B1 | – | binds | –
B2 | – | – | binds
